The experiment addresses N-terminally twin-strep tagged PCNA (Proliferating Cell Nuclear Antigen) (human) (UniProt P12004). Briefly: affinity purification with mass spectrometry; twin-strep-PCNA as bait from MNase-solubilised chromatin of hydroxyurea-treated HEK293 cells; anti-Strep affinity beads, elution with 20 mM desthiobiotin, 10-30% glycerol gradient; Coomassie gel bands identified by mass spectrometry.

The chains behind the UniProt entries cited, without tags or fusion partners.
UniProt P12004: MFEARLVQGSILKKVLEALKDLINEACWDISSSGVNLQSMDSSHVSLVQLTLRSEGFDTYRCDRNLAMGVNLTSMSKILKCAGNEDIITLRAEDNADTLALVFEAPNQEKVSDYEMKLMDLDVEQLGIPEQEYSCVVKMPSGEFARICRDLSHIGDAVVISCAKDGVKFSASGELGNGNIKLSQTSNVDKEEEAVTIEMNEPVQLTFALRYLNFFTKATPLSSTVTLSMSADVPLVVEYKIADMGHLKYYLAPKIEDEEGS
UniProt P52701: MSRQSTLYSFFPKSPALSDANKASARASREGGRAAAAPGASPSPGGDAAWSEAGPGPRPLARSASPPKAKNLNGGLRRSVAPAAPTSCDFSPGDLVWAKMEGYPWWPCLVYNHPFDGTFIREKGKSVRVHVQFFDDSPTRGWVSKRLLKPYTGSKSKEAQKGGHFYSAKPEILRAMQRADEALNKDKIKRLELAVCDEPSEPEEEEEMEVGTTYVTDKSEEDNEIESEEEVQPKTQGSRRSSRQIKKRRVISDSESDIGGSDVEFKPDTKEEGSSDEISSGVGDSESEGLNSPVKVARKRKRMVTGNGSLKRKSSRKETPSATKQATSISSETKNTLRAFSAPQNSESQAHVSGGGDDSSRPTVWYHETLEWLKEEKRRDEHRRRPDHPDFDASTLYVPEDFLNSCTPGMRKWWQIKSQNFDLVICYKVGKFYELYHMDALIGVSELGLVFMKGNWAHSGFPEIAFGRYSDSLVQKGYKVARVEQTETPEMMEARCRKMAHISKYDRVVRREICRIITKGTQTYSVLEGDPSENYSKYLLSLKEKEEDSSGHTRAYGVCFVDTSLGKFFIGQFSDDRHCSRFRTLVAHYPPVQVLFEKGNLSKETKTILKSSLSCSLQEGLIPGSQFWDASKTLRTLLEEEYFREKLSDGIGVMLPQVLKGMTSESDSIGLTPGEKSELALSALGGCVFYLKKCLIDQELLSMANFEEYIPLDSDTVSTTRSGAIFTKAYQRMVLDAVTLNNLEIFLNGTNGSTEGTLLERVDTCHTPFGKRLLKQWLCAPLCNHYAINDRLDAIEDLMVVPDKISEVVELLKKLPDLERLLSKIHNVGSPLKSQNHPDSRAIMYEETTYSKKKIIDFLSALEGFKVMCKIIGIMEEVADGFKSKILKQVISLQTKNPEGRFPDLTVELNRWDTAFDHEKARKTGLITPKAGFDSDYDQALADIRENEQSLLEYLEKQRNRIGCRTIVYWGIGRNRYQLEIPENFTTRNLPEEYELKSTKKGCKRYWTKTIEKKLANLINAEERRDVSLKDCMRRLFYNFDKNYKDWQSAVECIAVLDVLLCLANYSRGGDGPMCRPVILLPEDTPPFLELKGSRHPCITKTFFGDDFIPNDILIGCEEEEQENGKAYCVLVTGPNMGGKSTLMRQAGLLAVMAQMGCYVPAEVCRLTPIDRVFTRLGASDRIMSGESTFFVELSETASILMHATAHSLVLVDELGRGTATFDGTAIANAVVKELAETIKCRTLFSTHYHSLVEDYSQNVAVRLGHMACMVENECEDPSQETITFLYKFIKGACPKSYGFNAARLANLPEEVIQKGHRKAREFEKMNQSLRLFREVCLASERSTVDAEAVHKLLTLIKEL

Results are given in words; binding and its absence hold for the method and conditions named. Binding seen in cells or lysates may run through a third protein. These calls come from enrichment with a bait or labelling near it, and not all partners need be listed.

In the case of MSH6 (from UniProt P52701 1-1360), the binding entry is “binds”.
